Measurements reported in PubChem BioAssay AID1159578 (Peter MacCallum Cancer Centre, 2015)
Here is one part, drawn at random, of about 18,000 reagents tested. About 1,030 of them (5.7%) were called active. 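Inactive calls also include pools with fewer than 3300 nuclei, whose migration was not assessed.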 Raw values are not corrected between plates. Reagent sequences are not shown.

Aim: 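Genome-wide hunt for genes controlling movement of lymphatic endothelial cells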 (primary screen)
System: human lymphatic endothelial cells
Reagents: siRNA pool against human genes, 40 nM
Time to read-out: 48 h after transfection
Read-out: 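High-content imaging of dye-stained cells in a scratch assay measures filled wound area and nuclei per well; duplicate means given as ratio to mock and robust z-score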
Scale: migration robust z-score: higher = faster migration into the scratch; migration relative to mock: higher = more scratch area covered than mock; nuclei per well: higher = more cells in the well
Hit rule: 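Pools averaging fewer than 3300 nuclei are never called; remaining pools count as changed when migration robust z lies outside -2 to 2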
Calls: active = migration changed; inactive = no migration change, or too few cells

Gene | migration robust z-score | migration class with cell-count check | migration relative to mock | nuclei per well, duplicate mean | Outcome
NCAN | -2.08 | migration z below -2; enough cells | 0.34 | 5218 | active
BLTP3A | -0.24 | migration z between -2 and 2; enough cells | 0.82 | 6409 | inactive
ASF1A | -0.42 | migration z between -2 and 2; enough cells | 0.72 | 5738 | inactive
ZMIZ2 | -1.26 | migration z between -2 and 2; enough cells | 0.56 | 5856 | inactive
TENM1 | 0.52 | migration z between -2 and 2; enough cells | 1.02 | 5910 | inactive
ARHGEF2 | -0.65 | migration z between -2 and 2; enough cells | 0.68 | 3822 | inactive
PTH | 1.25 | migration z between -2 and 2; enough cells | 1.21 | 5896 | inactive
CASP8 | 0.2 | migration z between -2 and 2; enough cells | 0.84 | 5698 | inactive
FAM219B | 0.86 | migration z between -2 and 2; enough cells | 1.11 | 6524 | inactive
TAPBP | -1.98 | migration z between -2 and 2; enough cells | 0.43 | 3792 | inactive
PUM2 | 1.52 | migration z between -2 and 2; enough cells | 1.27 | 6640 | inactive
C7 | -0.64 | migration z between -2 and 2; enough cells | 0.72 | 5002 | inactive
SPATA31H1 | -0.52 | migration z between -2 and 2; enough cells | 0.75 | 5496 | inactive
FIBCD1 | -1.14 | migration z between -2 and 2; enough cells | 0.59 | 4495 | inactive
RDX | -0.48 | migration z between -2 and 2; enough cells | 0.76 | 6167 | inactive
SEMA3G | 0.08 | migration z between -2 and 2; enough cells | 0.9 | 6012 | inactive
DCST1 | 0.54 | migration z between -2 and 2; enough cells | 1.02 | 5264 | inactive
ZNF480 | 0.98 | migration z between -2 and 2; enough cells | 1.14 | 6828 | inactive
AKR1B15 | 0.48 | migration z between -2 and 2; enough cells | 1 | 6224 | inactive
VPS33A | 0.96 | migration z between -2 and 2; enough cells | 1.13 | 5810 | inactive
C3P1 | 2.29 | migration z above 2; enough cells | 1.48 | 6630 | active
PEX5 | 0.68 | migration z between -2 and 2; enough cells | 0.94 | 5668 | inactive
CD1D | -1.15 | migration z between -2 and 2; enough cells | 0.58 | 5990 | inactive
CD3D | -0.32 | migration z between -2 and 2; enough cells | 0.74 | 5938 | inactive
CDC50A | 0.03 | migration z between -2 and 2; enough cells | 0.9 | 6640 | inactive
DDX42 | -1.48 | migration z between -2 and 2; enough cells | 0.5 | 5270 | inactive
SUPT7L | 0.99 | migration z between -2 and 2; enough cells | 1.15 | 6590 | inactive
GARIN6 | -4.15 | migration z below -2; enough cells | -0.2 | 6528 | active
KLHL4 | 0.38 | migration z between -2 and 2; enough cells | 0.99 | 4970 | inactive
TRIM16 | 0.51 | migration z between -2 and 2; enough cells | 1.02 | 5793 | inactive
RPS27A | -0.79 | migration z between -2 and 2; enough cells | 0.68 | 4372 | inactive
COQ6 | -0.29 | migration z between -2 and 2; enough cells | 0.75 | 6520 | inactive
VMP1 | -0.12 | migration z between -2 and 2; enough cells | 0.86 | 5146 | inactive
ACTL6B | 0.45 | migration z between -2 and 2; enough cells | 1 | 5698 | inactive
SLC30A10 | -0.05 | migration z between -2 and 2; enough cells | 0.8 | 5226 | inactive
MYO15A | 0.99 | migration z between -2 and 2; enough cells | 1 | 5071 | inactive
OR2F2 | 0.2 | migration z between -2 and 2; enough cells | 0.94 | 5706 | inactive
ZNF7 | 1.03 | migration z between -2 and 2; enough cells | 1.16 | 5926 | inactive
TXNDC16 | -0.02 | migration z between -2 and 2; enough cells | 0.8 | 6450 | inactive
NAT16 | -1.15 | migration z between -2 and 2; enough cells | 0.59 | 5868 | inactive
TSPEAR | 0.16 | migration z between -2 and 2; enough cells | 0.92 | 5570 | inactive
SPEM2 | -0.88 | migration z between -2 and 2; enough cells | 0.66 | 5025 | inactive
PAPSS2 | 0.52 | migration z between -2 and 2; enough cells | 0.9 | 5346 | inactive
OSR2 | -1.17 | migration z between -2 and 2; enough cells | 0.58 | 5593 | inactive
ECE2 | 0.32 | migration z between -2 and 2; enough cells | 0.86 | 5892 | inactive
CAVIN4 | -0.46 | migration z between -2 and 2; enough cells | 0.76 | 6474 | inactive
MRM2 | -0.83 | migration z between -2 and 2; enough cells | 0.64 | 6180 | inactive
KCNK17 | -1.71 | migration z between -2 and 2; enough cells | 0.48 | 4440 | inactive
OR2B3 | -0.38 | migration z between -2 and 2; enough cells | 0.78 | 6186 | inactive
ZNF10 | 0.18 | migration z between -2 and 2; enough cells | 0.93 | 6549 | inactive
ZNF12 | 0.5 | migration z between -2 and 2; enough cells | 1.02 | 6084 | inactive
FGD6 | 1.7 | migration z between -2 and 2; enough cells | 1.32 | 5626 | inactive
SLITRK1 | -2.54 | migration z below -2; enough cells | 0.22 | 4078 | active
SLF1 | 1.34 | migration z between -2 and 2; enough cells | 1.23 | 5688 | inactive
GPR158 | 0.08 | migration z between -2 and 2; enough cells | 0.82 | 6184 | inactive
PIWIL3 | 0.4 | migration z between -2 and 2; enough cells | 0.99 | 6089 | inactive
NEK3 | -3.81 | under 3300 nuclei; migration not judged | 0.07 | 2828 | inactive
PSG1 | -0.44 | migration z between -2 and 2; enough cells | 0.77 | 5660 | inactive
TAS2R41 | -0.98 | migration z between -2 and 2; enough cells | 0.63 | 3884 | inactive
COLEC12 | 0.58 | migration z between -2 and 2; enough cells | 1.04 | 5714 | inactive
FAM181B | -0.5 | migration z between -2 and 2; enough cells | 0.76 | 6068 | inactive
CDK20 | -2.96 | migration z below -2; enough cells | 0.24 | 4576 | active
TRPV4 | -5.39 | under 3300 nuclei; migration not judged | -0.24 | 2984 | inactive
ELF2 | 0.94 | migration z between -2 and 2; enough cells | 0.99 | 5924 | inactive
C5orf46 | 0.14 | migration z between -2 and 2; enough cells | 0.92 | 4776 | inactive
GRK2 | -1.9 | migration z between -2 and 2; enough cells | 0.44 | 3618 | inactive
USP25 | -2.59 | migration z below -2; enough cells | 0.3 | 3622 | active
CTSV | 0.62 | migration z between -2 and 2; enough cells | 0.92 | 6167 | inactive
GRIN2B | 1.12 | migration z between -2 and 2; enough cells | 1.02 | 4834 | inactive
FRMD5 | -0.16 | migration z between -2 and 2; enough cells | 0.84 | 6366 | inactive
COL18A1 | -0.53 | migration z between -2 and 2; enough cells | 0.75 | 4871 | inactive
SYNM | 0.02 | migration z between -2 and 2; enough cells | 0.89 | 5439 | inactive
VN1R5 | 0.78 | migration z between -2 and 2; enough cells | 0.96 | 6892 | inactive

8 consecutive entries already listed, quoted:
Gene | migration robust z-score | migration class with cell-count check | migration relative to mock | nuclei per well, duplicate mean | Outcome
ARHGEF2 | -0.65 | migration z between -2 and 2; enough cells | 0.68 | 3822 | inactive
PTH | 1.25 | migration z between -2 and 2; enough cells | 1.21 | 5896 | inactive
CASP8 | 0.2 | migration z between -2 and 2; enough cells | 0.84 | 5698 | inactive
FAM219B | 0.86 | migration z between -2 and 2; enough cells | 1.11 | 6524 | inactive
TAPBP | -1.98 | migration z between -2 and 2; enough cells | 0.43 | 3792 | inactive
PUM2 | 1.52 | migration z between -2 and 2; enough cells | 1.27 | 6640 | inactive
C7 | -0.64 | migration z between -2 and 2; enough cells | 0.72 | 5002 | inactive
SPATA31H1 | -0.52 | migration z between -2 and 2; enough cells | 0.75 | 5496 | inactive
